This is one part of the list. Many values rest on one well or one pass, so single values are uncertain.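 Primary human fetal astrocytes engulfed labelled rat cortical synaptosomes, measured as a red/green ratio corrected for calcein live-cell signal and scaled to the plate median. Toxicity meant calcein falling over 30%; decreased phagocytosis meant below 70% of median above 5 µM.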
Test system: Human fetal astrocytes
Test: loss of total cells relative to no-compound high-control median (toxicity); higher = more toxic (fewer cells)
Conditions: 22.22 µM; 24 h

| SMILES | loss of total cells [%] |
| --- | --- |
| CCOC(=O)[C@H](CCc1ccccc1)N[C@@H](C)C(=O)N1CCC[C@H]1C(=O)O | 11.9 |
| COC(=O)C[C@H]1C(C)(C)[C@@H](O)[C@@H]2CC3=C4C=C(OC)O[C@@H](c5ccoc5)[C@]4(C)CCC3[C@@]1(C)C2=O (stereo partly drawn) [3-DEOXO-3beta-HYDROXYMEXICANOLIDE 16-ENOL ETHER] | 15.2 |
| CN1CCN(C(c2ccccc2)c2ccccc2)CC1 | 23.4 |
| N[C@@H](CCC(=O)N[C@@H](CSC(CC(=O)O)C(=O)O)C(=O)NCC(=O)O)C(=O)O (stereo partly specified) | -0.8 |
| Cc1ccc(S(=O)(=O)NC(=O)NN2CC3CCCC3C2)cc1 (stereo unspecified) | 6.1 |
| CC[C@H]1OC(=O)C[C@@H](O)[C@H](C)[C@@H](O[C@@H]2O[C@H](C)[C@@H](O)[C@H](N(C)C)[C@H]2O)[C@@H](CCN2C[C@H](C)C[C@H](C)C2)C[C@@H](C)C(=O)/C=C/C(C)=C/[C@@H]1CO[C@@H]1O[C@H](C)[C@@H](O)[C@@H](OC)[C@H]1OC | 2.2 |
| Nc1ccccc1S(N)(=O)=O | 23.5 |
| O=c1c(O)cc([C@H]2Oc3cc(O)cc(O)c3C[C@H]2O)cc2c([C@H]3Oc4cc(O)cc(O)c4C[C@H]3O)cc(O)c(O)c12 | 22.6 |
| Cc1nc(C)c(Cl)c(O)c1Cl | 3.4 |
| CC(=O)O[C@H]1CC[C@]2(C)[C@H]3CC=C4[C@@H]5CC(C)(C)CC[C@]5(C)CC[C@@]4(C)[C@]3(C)CC[C@H]2C1(C)C [beta-AMYRIN ACETATE] | 1.9 |
| C#C[C@]1(OC(C)=O)CC[C@H]2[C@@H]3CCC4=C[C@@H](OC(C)=O)CC[C@@H]4[C@H]3CC[C@@]21C | 6.3 |

Given comma-delimited: part of the list above.
SMILES,loss of total cells [%]
Nc1ccccc1S(N)(=O)=O,23.5
O=c1c(O)cc([C@H]2Oc3cc(O)cc(O)c3C[C@H]2O)cc2c([C@H]3Oc4cc(O)cc(O)c4C[C@H]3O)cc(O)c(O)c12,22.6

Source: the supplement of paper PMC10689618
